Assay results from US20020058798A1 (YEDA RESEARCH AND DEVELOPMENT, published 2002).
These are yes or no findings as the source states them, for the method shown. Some results given as binding are weak or reduced against the parent protein; the word gives no strength.

Sequences of proteins named here, by UniProt entry; tags and fusion partners are left off. A change or cut given only in a name is not applied to a line headed by its entry.
UniProt Q13158: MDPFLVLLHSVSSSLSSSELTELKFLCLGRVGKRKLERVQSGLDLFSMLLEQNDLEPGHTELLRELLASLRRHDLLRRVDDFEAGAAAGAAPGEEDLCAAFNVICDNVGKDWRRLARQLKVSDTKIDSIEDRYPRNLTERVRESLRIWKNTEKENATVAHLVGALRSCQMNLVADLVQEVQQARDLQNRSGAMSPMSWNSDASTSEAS

Tests used:
[1] = molecular target: MORT-1 fragment, residues 130-245 (human) (UniProt Q13158); experiment: yeast two-hybrid beta-galactosidase filter assay (SFY526); row = Gal4 DNA-binding-domain hybrid, column = activation-domain hybrid; ++ = strong color within 30 min
[2] = molecular target: MORT-1 fragment, residues 130-245 (human) (UniProt Q13158); experiment: yeast two-hybrid beta-galactosidase filter assay (SFY526); row = Gal4 DNA-binding-domain hybrid, column = activation-domain hybrid; + = strong color within 90 min

B1: Mouse Fas-IC, full (receptor, UniProt P25446 187-327, looked up)
chain: RKYRKRKCWKRRQDDPESRTSSRETIPMNASNLSLSKYIPRIAEDMTIQEAKKFARENNIKEGKIDEIMHDSIQDTAEQKVQLLLCWYQSHGKSDAYQDLIKGLKKAECRRTLDKFQDMVQKDLGKSTPDTGNENEGQCLE
For B1, the binding [1] was “binds”.

B2: Mouse Fas-IC 197-306 (receptor, UniProt P25446 218-327, looked up)
chain: NLSLSKYIPRIAEDMTIQEAKKFARENNIKEGKIDEIMHDSIQDTAEQKVQLLLCWYQSHGKSDAYQDLIKGLKKAECRRTLDKFQDMVQKDLGKSTPDTGNENEGQCLE
For B2, the binding [2] was “binds”.
